From paper PMC4700579
Results are given in words; binding and its absence hold for the method and conditions named. Binding seen in cells or lysates may run through a third protein. Some results given as binding are weak or reduced against the parent protein; the word gives no strength.

Amino acid sequences for entries named in this document (tags omitted).
UniProt P55884: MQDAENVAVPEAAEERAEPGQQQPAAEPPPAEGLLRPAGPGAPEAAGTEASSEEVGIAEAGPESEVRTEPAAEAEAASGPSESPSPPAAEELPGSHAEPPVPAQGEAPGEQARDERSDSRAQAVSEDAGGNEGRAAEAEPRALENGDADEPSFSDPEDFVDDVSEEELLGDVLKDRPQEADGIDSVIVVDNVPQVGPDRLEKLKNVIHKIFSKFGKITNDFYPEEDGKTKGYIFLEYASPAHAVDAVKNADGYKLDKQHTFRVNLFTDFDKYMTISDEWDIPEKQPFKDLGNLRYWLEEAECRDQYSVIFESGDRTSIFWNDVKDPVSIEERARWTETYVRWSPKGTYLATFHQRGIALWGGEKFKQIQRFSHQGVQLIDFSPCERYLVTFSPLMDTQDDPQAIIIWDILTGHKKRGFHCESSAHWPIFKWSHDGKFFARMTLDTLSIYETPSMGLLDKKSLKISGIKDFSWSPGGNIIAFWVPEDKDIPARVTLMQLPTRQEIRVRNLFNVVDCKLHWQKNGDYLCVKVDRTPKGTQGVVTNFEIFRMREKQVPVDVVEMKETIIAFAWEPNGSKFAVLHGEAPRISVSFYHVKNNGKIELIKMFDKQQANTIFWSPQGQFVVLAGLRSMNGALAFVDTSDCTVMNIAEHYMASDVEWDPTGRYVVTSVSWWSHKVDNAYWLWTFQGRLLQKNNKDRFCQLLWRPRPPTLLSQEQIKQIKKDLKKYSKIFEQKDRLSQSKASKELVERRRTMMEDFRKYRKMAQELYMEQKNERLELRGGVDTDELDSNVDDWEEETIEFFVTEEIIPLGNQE
UniProt Q04637: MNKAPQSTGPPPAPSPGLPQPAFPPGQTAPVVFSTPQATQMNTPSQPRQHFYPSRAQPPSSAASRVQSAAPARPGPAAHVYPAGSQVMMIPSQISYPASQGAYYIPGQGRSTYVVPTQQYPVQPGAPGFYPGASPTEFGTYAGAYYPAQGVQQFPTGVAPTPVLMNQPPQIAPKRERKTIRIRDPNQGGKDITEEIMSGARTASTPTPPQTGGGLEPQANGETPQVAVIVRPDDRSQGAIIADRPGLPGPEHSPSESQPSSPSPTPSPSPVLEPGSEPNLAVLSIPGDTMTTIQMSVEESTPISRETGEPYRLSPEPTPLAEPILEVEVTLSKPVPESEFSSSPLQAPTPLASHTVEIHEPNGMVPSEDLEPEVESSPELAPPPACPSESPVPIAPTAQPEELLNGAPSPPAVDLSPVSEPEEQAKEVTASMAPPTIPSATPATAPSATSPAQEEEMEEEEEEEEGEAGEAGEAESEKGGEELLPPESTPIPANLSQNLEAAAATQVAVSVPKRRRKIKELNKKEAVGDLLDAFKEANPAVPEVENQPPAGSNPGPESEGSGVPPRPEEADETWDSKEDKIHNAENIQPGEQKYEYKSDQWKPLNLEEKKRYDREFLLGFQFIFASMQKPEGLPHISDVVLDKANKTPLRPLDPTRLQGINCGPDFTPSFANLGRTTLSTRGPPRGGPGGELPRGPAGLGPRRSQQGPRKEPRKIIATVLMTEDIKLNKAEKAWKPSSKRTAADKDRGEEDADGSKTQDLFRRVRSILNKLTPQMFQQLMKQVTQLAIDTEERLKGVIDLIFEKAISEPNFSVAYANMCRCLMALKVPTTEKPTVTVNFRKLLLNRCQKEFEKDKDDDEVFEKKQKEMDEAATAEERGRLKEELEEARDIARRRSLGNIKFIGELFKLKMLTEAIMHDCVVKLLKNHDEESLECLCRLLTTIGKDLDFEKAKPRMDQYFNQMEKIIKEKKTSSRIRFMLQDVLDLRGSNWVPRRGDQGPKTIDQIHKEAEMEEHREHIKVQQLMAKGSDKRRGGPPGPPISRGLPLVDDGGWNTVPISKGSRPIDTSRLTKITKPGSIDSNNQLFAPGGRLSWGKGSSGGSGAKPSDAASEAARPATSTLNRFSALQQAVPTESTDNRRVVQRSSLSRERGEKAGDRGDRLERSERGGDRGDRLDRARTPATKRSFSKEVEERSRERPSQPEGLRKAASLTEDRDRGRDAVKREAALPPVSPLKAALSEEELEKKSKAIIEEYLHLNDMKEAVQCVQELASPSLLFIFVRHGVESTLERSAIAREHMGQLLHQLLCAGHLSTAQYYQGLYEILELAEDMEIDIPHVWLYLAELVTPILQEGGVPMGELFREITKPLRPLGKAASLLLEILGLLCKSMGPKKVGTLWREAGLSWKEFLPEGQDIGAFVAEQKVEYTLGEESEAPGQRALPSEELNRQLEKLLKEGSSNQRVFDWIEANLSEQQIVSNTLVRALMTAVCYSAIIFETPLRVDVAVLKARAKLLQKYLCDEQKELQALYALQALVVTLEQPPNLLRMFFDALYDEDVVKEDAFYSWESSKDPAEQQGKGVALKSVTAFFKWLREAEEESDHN
UniProt P06730: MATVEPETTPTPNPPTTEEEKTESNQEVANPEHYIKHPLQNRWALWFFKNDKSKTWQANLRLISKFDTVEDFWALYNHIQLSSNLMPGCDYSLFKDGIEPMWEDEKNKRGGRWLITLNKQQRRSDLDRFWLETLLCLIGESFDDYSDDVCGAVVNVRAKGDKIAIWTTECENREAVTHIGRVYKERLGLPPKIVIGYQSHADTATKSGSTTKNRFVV

Target: eIF3B (human (endogenous in fibroblasts)) (UniProt P55884)
Experiment: co-IP; primary antibody (anti-eIF4E or anti-eIF3B) added to lysates of RBS and corrected fibroblasts (D-Leu or L-Leu treated), overnight at 4 °C, protein G-dynabeads 3 h, washed three times with lysis buffer, Western blot

| binding | Substance |
| --- | --- |
| binds | eIF4G1 (from UniProt Q04637 1-1599) |
| binds | eukaryotic translation initiation factor 4E (from UniProt P06730 1-217) |
